# Results of single-concentration screens

Chains of the proteins cited; added tags and fusions are not shown.
UniProt P9WNZ1, whole entry: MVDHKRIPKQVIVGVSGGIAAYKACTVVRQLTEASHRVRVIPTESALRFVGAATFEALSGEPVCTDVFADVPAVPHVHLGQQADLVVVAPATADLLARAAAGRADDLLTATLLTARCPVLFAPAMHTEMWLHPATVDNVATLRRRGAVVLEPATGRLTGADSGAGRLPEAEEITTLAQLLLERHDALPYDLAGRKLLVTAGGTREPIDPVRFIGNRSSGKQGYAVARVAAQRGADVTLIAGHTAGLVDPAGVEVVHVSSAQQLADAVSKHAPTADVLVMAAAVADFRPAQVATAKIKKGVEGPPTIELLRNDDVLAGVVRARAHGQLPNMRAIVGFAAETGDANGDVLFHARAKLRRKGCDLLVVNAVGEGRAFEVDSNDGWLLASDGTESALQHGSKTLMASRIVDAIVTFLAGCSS

Measurements from “University of Dundee, Small-Polar-MMV Screening Library” (2021), ChEMBL document CHEMBL3988442.

A: 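Cell assay of Leishmania donovani living inside macrophages; the read-out is not stated. Compounds at 30 µM. Direction is inferred from retests: higher values go with stronger inhibition. Size under these conditions: about 69,000 compounds, about 1,000 of them at 50% or above in at least one test.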
B: 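Coenzyme A biosynthesis protein CoaBC, Mycobacterium tuberculosis (UniProt P9WNZ1). Enzyme assay of CoaBC with a phosphate dye (Biomol Green) read at 650 nm. Concentration: 30 µM. Direction is inferred from only a few compounds that gave an IC50; most scored high, so higher reads as stronger inhibition. Most strong results did not repeat in a second test. About 67,000 compounds were tested under these conditions; 0.06% (about 40) showed 50% or more at least once.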

The filed quantity is “Percent Effect” (%).
The controls that fix the scale are not given in the record; negative values are as filed.
The compounds are a random part of those screened.
Two or more numbers in one place are separate tests of the same structure; such repeats can differ widely.
A dash means the value is not listed here; it may have been measured.

| # | Compound | A | B |
|---|---|---|---|
| 1 | `COc1ccc2oc(C(C)NC(=O)NC3CCN(C)CC3)c(C)c2c1` (stereo unspecified) | -1.144 and -4.899 | 1.781 |
| 2 | `NC(=O)CCC1CCCN(c2ccc3c(Cl)ccnc3c2F)C1` (stereo unspecified) | 28.61 | - |
| 3 | `COc1ccc2c(c1)CCN(CCC(=O)O)CC2` | 5.162 | 7.036 |
| 4 | `O=C(NCCn1ccnc1-c1cc2n(n1)CCNC2)c1ccc(F)cc1` | 18.97 | 3.893 |
| 5 | `CCCN(CCc1cccc(F)c1)c1ccc2nnnn2n1` | -16.18 | -2.419 |
| 6 | `CCc1ccc(C(=O)Nc2ccc(CC3CC(=O)NC3=O)cc2)cc1` (stereo unspecified) | 23.7 | 7.036 |
| 7 | `Cc1nc(C2CCCCN2S(C)(=O)=O)no1` (stereo unspecified) | 34.43 | -3.067 |
| 8 | `CS(=O)(=O)NCCC1CCCN(Cc2ccccc2F)C1` (stereo unspecified) | -11.13 | -1.34 |
| 9 | `CC(C)(C)C1SCC(=O)Nc2c1c(O)nn2C1CCCCC1` (stereo unspecified) | 10.67 and 17.15 | 6.835 |
| 10 | `CCOc1nnc(CN2CCC(c3nc4ccccc4[nH]3)CC2)s1` | -12.05 | 0.9677 |
| 11 | `Cn1cc(S(=O)(=O)NCCc2ccsc2)cn1` | -18.77 | -2.187 |
| 12 | `COCCC1(C(=O)O)CCCN(CCOCc2ccccc2)C1` (stereo unspecified) | 12.22 | 4.087 |
| 13 | `CS(=O)(=O)NC1CCN(C(=O)NCCc2ccccc2F)CC1` | 14.49 | 21.25 and -6.349 |
| 14 | `Cn1nccc1C(=O)N1CCC(c2ncc(Cl)cc2S(C)(=O)=O)CC1` | 2.257 | -1.577 |
| 15 | `c1cnn(CC2CCCCN2c2ncnc3ccsc23)c1` (stereo unspecified) | 6.592 | 10.09 |
| 16 | `Cc1ccsc1CNC1CCCc2c1cnn2C` (stereo unspecified) | - | -2.376 |
| 17 | `CN1CCc2nc(C3CCCN(C(=O)CC4CCCCC4)C3)ncc2C1` (stereo unspecified) | 10.66 and 2.042 | 1.214 |
| 18 | `Cc1csc(CN2CC[C@H]3C[C@@H](c4nnc(C)[nH]4)O[C@@H]3C2)n1` | - | 6.042 |
| 19 | `O=C(O)C(c1ccc2[nH]ccc2c1)N1CCOCC1` (stereo unspecified) | -15.25 | -0.6048 |
| 20 | `CN1CCN(c2cnn(CCn3cccn3)c(=O)c2)CC1` | 13.6 | 5.6 |
| 21 | `CCOC(=O)N(C)CC(=O)NCCc1coc(-c2ccc(C)cc2)n1` | 18.57 | 2.93 |
| 22 | `COc1ccc2nnc(CCCC(=O)NCc3cccn3C)n2n1` | 3.305 | -2.826 |
| 23 | `NC(=O)CN1CCC(c2noc3cc(F)ccc23)CC1` | -43.72 | -11.86 |
| 24 | `CC(C)N(C(=O)N1CCn2cncc2C1)C(C)C` | 31.96 | 6.612 |
| 25 | `[H][C@]12CN(Cc3ccccn3)CCN1C[C@H](c1ccccc1)[C@H]2C(=O)NC` | 11.87 | - |
| 26 | `CN(CCCNC(=O)Nc1ccc(C#N)cc1)CC(F)(F)F` | -22.58 | 2.445 |
| 27 | `N#Cc1ccc(N2CCN(c3cnccn3)CC2)c(C(F)(F)F)c1` | 10.86 | -4.065 |
| 28 | `CC(=O)N1CCc2ccc(S(=O)(=O)N3CCCCC3C)cc21` (stereo unspecified) | 3.538 | 2.439 |
| 29 | `Cc1nc(CNC(=O)NCC(O)c2ccc(F)cc2F)cs1` (stereo unspecified) | 17.93 | -1.434 |
| 30 | `N#Cc1ccc(C(=O)N2CCC3(CC2)C(=O)Nc2ccccc23)cn1` | 19.5 | 3.965 |
| 31 | `CCNS(=O)(=O)C1CCN(C(=O)c2c(F)cc(F)cc2F)C1` (stereo unspecified) | 29.74 | 1.085 |
| 32 | `CC(NC(=O)NCCCc1n[nH]c(N)c1C#N)c1ccc(Cl)cc1` (stereo unspecified) | 20.26 | 3.412 |
| 33 | `O=C(NCCN1CCCCC1)c1ccoc1` | -18.52 | 3.162 |
| 34 | `COc1coc(CN2CCCC(CCc3ccc(F)cc3)C2)cc1=O` (stereo unspecified) | -30.55 | 2.581 |
| 35 | `Cn1cnnc1-c1cncc(NCc2cccc3c2OC(C)(C)C3)c1` | -6.433 | -1.789 |
| 36 | `CS(=O)(=O)NCCC1CN(Cc2ccccc2F)CCO1` (stereo unspecified) | 18.65 | 1.34 |
| 37 | `CC(=O)c1ccc(Cl)c(Cl)c1OCC(=O)NC(N)=O` | 15.14 | 2.554 |
| 38 | `CC(NC(=O)NCCS(C)(=O)=O)c1ccc2c(c1)CCC(=O)N2` (stereo unspecified) | 25.32 | -0.4779 |
| 39 | `Cc1occc1C(=O)N1CCCC2(CCN(c3ccsc3)C2=O)C1` (stereo unspecified) | 33.17 | -0.3708 |
| 40 | `CN(C)Cc1cn2c(n1)CN(C(=O)Cc1ccsc1)CC2.O=C(O)C(F)(F)F` | 27.88 | - |
| 41 | `COCC(=O)N1CCC2(CCC2NC(=O)c2ccn(C)c2)CC1` (stereo unspecified) | 31.43 | 4.061 |
| 42 | `CC(C)NC(=O)C1CN(C(=O)Cc2cccc(F)c2)CC12CCOCC2` (stereo unspecified) | 24.1 | 5.764 |
| 43 | `CC(Cn1cncn1)NCCN1CCc2ccccc21` (stereo unspecified) | 18.73 | -1.538 |
| 44 | `CCN(Cc1ccncc1)CC1(O)CCN(C(=O)c2cccc(C)c2)C1` (stereo unspecified) | 9.546 and 27.89 | -3.65 |
| 45 | `Cc1nn(C)c2nc(N3CCCCC3c3cccnc3)sc12` (stereo unspecified) | 20.6 | 1.106 |
| 46 | `O=C(O)C(F)(F)F.O=C(O)C(F)(F)F.[H][C@@]12CCCO[C@]1([H])[C@H](N(C)Cc1cncnc1)CN(Cc1ccco1)C2` | 37.81 | - |
| 47 | `COc1ccc(OCc2cc(C(=O)N3C[C@@H](C)O[C@@H](C)C3)n[nH]2)c(Cl)c1` | -4.513 | 11.58 |
| 48 | `N#Cc1cccnc1Nc1ccc(N2CCC(C(N)=O)CC2)cc1` | 23 | 0.2433 |
| 49 | `Cc1noc(C)c1-c1nc(C2CCCN(C(=O)CCN)C2)ccc1CO` (stereo unspecified) | 4.373 | 2.283 |
| 50 | `COCCNc1ccccc1CNC(=O)C1CCCOC1` (stereo unspecified) | 22.65 | 1.353 |
| 51 | `Cc1ccccc1-n1ccnc1S(=O)(=O)Cc1nsc(N(C)C)n1` | 10.05 | -1.597 |
| 52 | `CC(=O)NCCc1ccc(S(=O)(=O)N(C)C(C)C(C)(C)C)s1` (stereo unspecified) | 30.72 | -19.92 |
| 53 | `Cc1ccc(C(=O)N2CCc3ncnc(-c4cnn(C)c4)c3CC2)cn1` | - | -14.32 |
| 54 | `CN(C)CCNc1cc(-c2ncccc2O)c2cc[nH]c2n1` | 19.4 | -24.08 |
| 55 | `CCN1CCCC1(C)c1nc(C)cc(N)n1` (stereo unspecified) | 32.34 | 4.513 |
| 56 | `Cc1nnc(CN2CCCC2c2ccc(C(C)(C)C)cc2)o1` (stereo unspecified) | 0.638 | 0.9828 |
| 57 | `COCCC(=O)N1CCC(C(=O)c2cc(C)cnc2N)CC1` | 5.93 | 1.363 |
| 58 | `O=C(Cc1ccccn1)N1CCn2cc(Cn3cncn3)nc2C1` | 30.22 | 6.318 |
| 59 | `Cc1ccccc1CN1CCC2(COCc3cnc(N(C)C)nc32)C1` (stereo unspecified) | - | -7.957 |
| 60 | `CCCN1CCCC1Cn1nc(C)cc1C` (stereo unspecified) | 21.44 | 1.79 |
| 61 | `NCCO[C@H]1C[C@@H](O)C12CCN(C(=O)COc1cccc(Cl)c1)CC2` | 0.6515 | -0.2558 |
| 62 | `CCC[C@H]1CN(Cc2ccccc2C#N)C[C@@H]1NS(C)(=O)=O` | 22.06 | 2.417 |
| 63 | `c1cnc(N2CCCC(Cc3nccs3)C2)nc1` (stereo unspecified) | 8.142 | -0.9685 |
| 64 | `Brc1cccnc1OC1CCNCC1` | - | -0.5109 |
| 65 | `COc1cc(C(=O)NCCS(=O)(=O)N(C)C)c2ccccc2n1` | 6.11 | 0.7335 |
| 66 | `CCCNC(=O)CCNC(=O)Cc1nc(-c2ccco2)oc1C` | 8.034 | -3.125 |
| 67 | `O=C(O)C(F)(F)F.O=C(O)C(F)(F)F.[H][C@@]12COC[C@]1(CNS(=O)(=O)CC)CN(Cc1cccnc1)C2` | 13.48 | - |
| 68 | `Cc1nc(CN2CCOC(c3ccc(Cl)cc3)C2)oc1C` (stereo unspecified) | 23.97 | 1.966 |
| 69 | `COc1cccc(CN2CCCC3(CCN(C(=O)N4CCCC4)C3)C2)c1.O=C(O)C(F)(F)F` (stereo unspecified) | 1.476 | - |
| 70 | `N#Cc1ccc(Cn2cncn2)c(F)c1` | 16.25 | -0.3968 |
| 71 | `Cc1nc(C2CCCN(C(=O)c3c[nH]c(C(C)C)n3)C2)no1` (stereo unspecified) | -15.23 | -1.364 |
| 72 | `CN(C)c1cc(C2CCCN2C(=O)c2noc3c2CCCC3)ccn1` (stereo unspecified) | 12.6 | -1.456 |
| 73 | `CS(=O)(=O)NCCNCc1ccc(Br)s1.Cl` | -21.65 | - |
| 74 | `CCN1CCN(c2ccc(CNC(=O)c3c(C)noc3C)cn2)CC1` | 8.938 | 5.346 |
| 75 | `CC(C)CN1C(=O)CC[C@H]2CN(C(=O)Cn3ccc(=O)cc3)CC[C@H]21` | - | 10.23 |
| 76 | `O=C(CCN1CCc2cncnc2C1)N1CCc2sccc2C1` | 16.91 | 2.2 |
| 77 | `CC(C)(O)CCc1cccc(C(=O)NCCC2=CSC3=NCCCN23)c1` | 6.041 | 6.42 |
| 78 | `CC(C(=O)NCc1ccco1)N1CCN(Cc2nccn2C)CC1` (stereo unspecified) | 12.58 | -2.232 |
| 79 | `Cn1ncc2c(=O)[nH]c(CN3CCCC3c3cccs3)nc21` (stereo unspecified) | 20.25 | 0.5141 |
| 80 | `CN(C)CCN1CCCC12CCN(Cc1nccn1C)CC2` | - | 1.485 |
| 81 | `CCN(CC1CN(Cc2cccnc2)CCO1)c1cccnn1` (stereo unspecified) | -63.16 | -4.132 |

The last 7 entries again:

| Compound | A | B |
|---|---|---|
| `CC(C)CN1C(=O)CC[C@H]2CN(C(=O)Cn3ccc(=O)cc3)CC[C@H]21` | - | 10.23 |
| `O=C(CCN1CCc2cncnc2C1)N1CCc2sccc2C1` | 16.91 | 2.2 |
| `CC(C)(O)CCc1cccc(C(=O)NCCC2=CSC3=NCCCN23)c1` | 6.041 | 6.42 |
| `CC(C(=O)NCc1ccco1)N1CCN(Cc2nccn2C)CC1` (stereo unspecified) | 12.58 | -2.232 |
| `Cn1ncc2c(=O)[nH]c(CN3CCCC3c3cccs3)nc21` (stereo unspecified) | 20.25 | 0.5141 |
| `CN(C)CCN1CCCC12CCN(Cc1nccn1C)CC2` | - | 1.485 |
| `CCN(CC1CN(Cc2cccnc2)CCO1)c1cccnn1` (stereo unspecified) | -63.16 | -4.132 |